# Test results reported in PubChem BioAssay (EPA / NIEHS).
# Chains of the proteins cited; added tags and fusions are not shown. Lines headed by an entry give the natural chain unless they say otherwise; changes in a name come on top.
# UniProt P62508: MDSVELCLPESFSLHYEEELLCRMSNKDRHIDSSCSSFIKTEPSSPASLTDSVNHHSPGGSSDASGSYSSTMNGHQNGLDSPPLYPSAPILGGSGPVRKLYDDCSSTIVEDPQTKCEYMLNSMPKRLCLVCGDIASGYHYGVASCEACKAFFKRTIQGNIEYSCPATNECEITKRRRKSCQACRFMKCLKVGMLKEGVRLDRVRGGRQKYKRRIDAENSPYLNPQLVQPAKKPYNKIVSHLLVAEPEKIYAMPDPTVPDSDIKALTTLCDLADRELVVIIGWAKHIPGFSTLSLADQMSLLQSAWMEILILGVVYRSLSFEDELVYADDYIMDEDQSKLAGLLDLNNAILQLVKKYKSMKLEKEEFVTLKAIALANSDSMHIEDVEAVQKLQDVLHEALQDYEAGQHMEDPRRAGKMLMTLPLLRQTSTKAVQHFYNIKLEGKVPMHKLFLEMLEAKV
# UniProt P04150: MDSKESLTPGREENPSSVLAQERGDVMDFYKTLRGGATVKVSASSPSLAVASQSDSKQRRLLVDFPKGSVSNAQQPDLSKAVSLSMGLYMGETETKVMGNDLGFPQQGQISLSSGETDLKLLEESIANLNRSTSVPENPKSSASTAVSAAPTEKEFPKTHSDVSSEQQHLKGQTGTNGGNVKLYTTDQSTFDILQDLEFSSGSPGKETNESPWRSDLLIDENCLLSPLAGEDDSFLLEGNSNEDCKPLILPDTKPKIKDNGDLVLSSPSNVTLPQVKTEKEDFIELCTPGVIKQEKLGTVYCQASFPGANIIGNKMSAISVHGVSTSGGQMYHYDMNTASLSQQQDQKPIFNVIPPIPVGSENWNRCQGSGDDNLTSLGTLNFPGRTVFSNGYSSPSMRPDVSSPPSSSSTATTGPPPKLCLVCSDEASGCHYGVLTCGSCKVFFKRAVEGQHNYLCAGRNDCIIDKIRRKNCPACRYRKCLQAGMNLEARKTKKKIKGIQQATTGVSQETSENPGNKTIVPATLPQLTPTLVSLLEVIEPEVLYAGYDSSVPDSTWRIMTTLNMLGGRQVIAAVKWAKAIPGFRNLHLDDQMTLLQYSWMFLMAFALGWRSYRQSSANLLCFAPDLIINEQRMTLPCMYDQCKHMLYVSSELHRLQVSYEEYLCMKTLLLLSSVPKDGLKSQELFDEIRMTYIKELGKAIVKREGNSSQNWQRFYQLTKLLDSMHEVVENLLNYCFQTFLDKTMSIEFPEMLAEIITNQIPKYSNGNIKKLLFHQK
# Where “and” joins values, the source holds several entries; their conditions need not be identical. Equal entries are not always repeated. The shares of active, inactive and inconclusive entries below differ from those in the screen. Potencies of inconclusive entries are doubtful fits and often do not repeat. Calls of active or inactive are those of the source. The calls were made as follows: active = hit-call score of the fitted dose curve at least 0.9, where 1 is the maximum; inconclusive = response in the unintended direction; inactive = score below 0.9.
# System: not listed separately
# Assay: ATG_GAL4_TRANS: Attagene TRANS-FACTORIAL HepG2 Assay for GAL4 (Internal Marker) (AID 2282976)
# Details: HepG2 Attagene TRANS GAL4 internal marker reporter
# In short: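 HepG2 cells transiently transfected with multiplexed GAL4-UAS reporter constructs were dosed for 24 h. Reporter mRNA was measured by RT-PCR, 6-FAM primer extension, HpaI digestion and capillary electrophoresis, and gain of signal was fitted relative to DMSO.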
SMILES,AC50,outcome
Cn1ccnc1,inconclusive: 0.0605 µM,
c1ccc(B(c2ccccc2)c2ccccc2)cc1,inconclusive: 24 µM and inconclusive: 82.3 nM,
OCCCS,,inactive
CC(=O)OCCOC(C)=O,,inactive
CCCOc1ccc(S(=O)(=O)N2CCN(CC)CC2)cc1-c1nc2c(CC)n(Cc3ccccn3)nc2c(=O)[nH]1,inconclusive: 100 µM,
CC(C)C(=O)OCCOc1ccccc1,inconclusive: 2.11 µM,
O=c1cccc[nH]1,inconclusive: 0.818 µM,
CCN(Cc1cccnc1)C(=O)c1cccc(Cl)c1[C@]1(C)C(=O)N(Cc2ccc(OC)cc2OC)c2ccc(Cl)cc21,,inactive
Cc1cc(CCN2CCN(c3nsc4ccccc34)CC2)cc2c1NC(=O)CC2(C)C,inconclusive: 11 µM,
Cc1cc(C)c(C)c(C)c1,,inactive
O=C1c2ccccc2C(=O)c2cc(S(=O)(=O)O)ccc21,inconclusive: 100 µM,
Cc1ccc(C(C)C)cc1,inconclusive: 0.00807 µM,
CC1(C)[C@H]2CC[C@]1(C)C(=O)C2,,inactive

SMILES,AC50,outcome
CCCCCC(C)O (stereo unspecified),,inactive
c1ccc2sc(SN(C3CCCCC3)C3CCCCC3)nc2c1,inconclusive: 7.56 µM,
O=C(O)c1[nH]n(-c2ccc(S(=O)(=O)O)cc2)c(=O)c1N=Nc1ccc(S(=O)(=O)O)cc1,,inactive
CC=CCO,inconclusive: 100 µM,
CN(C)c1ccc(C(=C2C=CC(=[N+](C)C)C=C2)c2ccc(N(C)C)cc2)cc1,inconclusive: 2.38 µM,
O=CC1CC1,,inactive
O=c1n(CCO)c(=O)n(CCO)c(=O)n1CCO,,inactive
OCCN1CN(CCO)CN(CCO)C1,,inactive
C=CC(=O)OCCC(F)(F)C(F)(F)C(F)(F)C(F)(F)F,,inactive
OCCCC(F)(F)C(F)(F)C(F)(F)C(F)(F)C(F)(F)C(F)(F)C(F)(F)F,inconclusive: 50 µM,
CCCCCCCCn1sc(Cl)c(Cl)c1=O,,inactive
O=Cc1ccccc1O,inconclusive: 175 µM,

# No new results follow: an excerpt of the list.
SMILES,AC50,outcome
CCCOc1ccc(S(=O)(=O)N2CCN(CC)CC2)cc1-c1nc2c(CC)n(Cc3ccccn3)nc2c(=O)[nH]1,inconclusive: 100 µM,
CC(C)C(=O)OCCOc1ccccc1,inconclusive: 2.11 µM,
O=c1cccc[nH]1,inconclusive: 0.818 µM,

# Biological target: Estrogen-related receptor gamma (Homo sapiens) (UniProt P62508)
# Assay: ATG_ERRg_TRANS: Attagene TRANS-FACTORIAL HepG2 Assay for human Estrogen-Related Receptor gamma (ERRg) (AID 2282977);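 also: hits increase reporter signal over DMSO so potencies reflect activators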
# Details: HepG2 Attagene TRANS reporter, ERRg transactivation
# In short: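 HepG2 cells transiently transfected with multiplexed GAL4-UAS reporter units and chimeric NR-Gal4 constructs were exposed to test chemicals for 24 h. Reporter mRNA was measured by RT-PCR, 6-FAM primer extension, HpaI digestion and capillary electrophoresis; gain-of-signal versus DMSO.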
SMILES,outcome,AC50
Cn1ccnc1,inactive,
c1ccc(B(c2ccccc2)c2ccccc2)cc1,inactive,
CCCOc1ccc(S(=O)(=O)N2CCN(CC)CC2)cc1-c1nc2c(CC)n(Cc3ccccn3)nc2c(=O)[nH]1,inactive,
O=c1cccc[nH]1,,inconclusive: 100 µM
Cc1cc(CCN2CCN(c3nsc4ccccc34)CC2)cc2c1NC(=O)CC2(C)C,inactive,
Cc1cc(C)c(C)c(C)c1,inactive,
C=CC(=O)OCCC(F)(F)C(F)(F)C(F)(F)C(F)(F)F,,inconclusive: 150 µM
OCCCC(F)(F)C(F)(F)C(F)(F)C(F)(F)C(F)(F)C(F)(F)C(F)(F)F,,inconclusive: 50 µM
CC(CCC(=O)O)(c1ccc(O)cc1)c1ccc(O)cc1,inactive,
FC(F)(F)COC(OCC(F)(F)F)OCC(F)(F)F,,inconclusive: 150 µM

# Biological target: Glucocorticoid receptor (Homo sapiens) (UniProt P04150)
# Assay: ATG_GR_TRANS: Attagene TRANS-FACTORIAL HepG2 Assay for human Glucocorticoid Receptor (GR) (AID 2282978);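 also: activators score as hits since higher reporter transcript over DMSO is fitted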
# Details: HepG2 Attagene TRANS GR reporter, mRNA transcription
# In short: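 Transiently transfected HepG2 cells express chimeric NR-GAL4 proteins acting on GAL4-UAS reporter units. Compounds are applied for 24 h. mRNA induction over DMSO is measured by capillary electrophoresis.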
SMILES,outcome,AC50
CC(=O)OCCOC(C)=O,inactive,
CCCOc1ccc(S(=O)(=O)N2CCN(CC)CC2)cc1-c1nc2c(CC)n(Cc3ccccn3)nc2c(=O)[nH]1,inactive,
Cc1cc(CCN2CCN(c3nsc4ccccc34)CC2)cc2c1NC(=O)CC2(C)C,inactive,
Cc1ccc(C(C)C)cc1,,inconclusive: 2.57 µM
COc1cc([N+](=O)[O-])ccc1N,,inconclusive: 100 µM
CCCCCC(C)O (stereo unspecified),,inconclusive: 24.5 µM
CN(C)c1ccc(C(=C2C=CC(=[N+](C)C)C=C2)c2ccc(N(C)C)cc2)cc1,,inconclusive: 19.4 µM
O=CC1CC1,,inconclusive: 100 µM
CSC(=O)c1cccc2nnsc12,inactive,
OCCCC(F)(F)C(F)(F)C(F)(F)C(F)(F)C(F)(F)C(F)(F)C(F)(F)F,,inconclusive: 78.8 µM
O=Cc1ccccc1O,,inconclusive: 100 µM
